The test concerns the target His6-tagged HtrA. Briefly: affinity purification with mass spectrometry; His6-HtrA (1.5 uM) as bait on Ni-NTA agarose; same conditions as for ClpBLi-Trap but no ATP in the buffers; L. interrogans lysate; LC-MS-MS/MS; only the target purified.

No constants are given. Whether binding was seen depends on the method and setting. Binding seen in cells or lysates may run through a third protein. These calls come from enrichment with a bait or labelling near it, and not all partners need be listed.

B1: 50S ribosomal protein L19 (protein, UniProt Q72S27 1-138)
chain: MNQLLREVLTPDAERTQNFTVGDTVKVHYKIVESGKERVQIYEGVVISVANEANGKTFTVRRVSYDVGVERIFPLFSPKIAKIELIRKGKVRRAKLYYLRNLAGKAARIKELKGGKALVSEDRKRQQAAAATKSTTTE
B1: the binding entry is reported as “binds”.

(Values after publication PMC5979558.)
